Where two headings read alike, the source gives them in different places. Some of these results come from one statement about several compounds together.
Tested on: HT-29
Conditions: 72 hours

| SMILES | inhibition of cell growth (celecoxib 5-10 μM alone) | inhibition of cell growth (curcumin 10-15 μM alone) |
| --- | --- | --- |
| Cc1ccc(-c2cc(C(F)(F)F)nn2-c2ccc(S(N)(=O)=O)cc2)cc1 [celecoxib, reference compound] | 25-30% | – |
| COc1cc(/C=C/C(=O)CC(=O)/C=C/c2ccc(O)c(OC)c2)ccc1O [curcumin] | – | 25-30% |

From patent US20070093457A1, “Compositions for treatment of cancer and inflammation with curcumin and at least one nsaid” (priority 2004, published 2007)
